Data as given in paper PMC3520743.
These are yes or no findings as the source states them, for the method shown. For some assays here: In cells and extracts the contact can be indirect. Some binding calls cover weakened binding; strength is not graded here. For some assays here: Where a sequence is shown, tags or fusion partners need not be part of it.

T1: Bacillus cereus Fnr, recombinant tag-less apo-form (Bacillus cereus F4430/73) (UniProt A4GFD9)
T1 sequence: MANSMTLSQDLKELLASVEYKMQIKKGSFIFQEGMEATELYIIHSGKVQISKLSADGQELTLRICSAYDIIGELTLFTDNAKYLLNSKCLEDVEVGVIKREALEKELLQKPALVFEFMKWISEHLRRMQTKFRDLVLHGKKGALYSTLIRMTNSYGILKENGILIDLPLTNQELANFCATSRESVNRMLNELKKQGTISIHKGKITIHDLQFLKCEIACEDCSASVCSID

T2: Bacillus cereus Fnr, reconstituted holo-form with a [4Fe-4S]2+ cluster (Bacillus cereus F4430/73) (UniProt A4GFD9)
T2 sequence (chain, one [4Fe-4S]2+ cluster per monomer): T1 sequence

T3: Fnr, endogenous in Bacillus cereus F4430/73 (Bacillus cereus (endogenous in B. cereus F4430/73)) (UniProt A4GFD9)
T3 sequence: T1 sequence

B1: ResD, recombinant purified (protein, UniProt Q0GZR8 1-238)
chain: MENESRILIVDDEDRIRRLLKMYLEREQYTIEEADNGDTALEMALQNDYDLILLDLMMPGKDGIEVCKGVREKKATPIIMLTAKGEEVNRVQGFEVGTDDYIVKPFSPREVVLRVKAVLRRAVPTTFFTQDTTTKDVTVFPHLTIDNDAHRVTADGNEVNLTPKEYELLLFLAKAPDKVFDREQLLKEVWQYEFFGDLRTVDTHVKRLREKLSKKSPDAAKMIVTVWGVGYKFEVVND
modifications: biotin (where used as the probe in the Far-Western)
B2: ResD, endogenous in Bacillus cereus F4430/73 (protein, UniProt Q0GZR8 1-238)
chain: B1 chain

What was measured:
[1] = biological target: T1, Bacillus cereus Fnr, recombinant tag-less apo-form (Bacillus cereus F4430/73); test: cross-linking; dimethyl suberimidate (DMS), in an anaerobic glove box; 12% SDS-PAGE, Western blot with anti-Fnr and anti-ResD antibodies; both purified
[2] = biological target: T2, Bacillus cereus Fnr, reconstituted holo-form with a [4Fe-4S]2+ cluster (Bacillus cereus F4430/73); test: far-Western, overlay or dot blot; increasing amounts of purified Fnr, ResD, PlcR and BSA spotted onto nitrocellulose, incubated with biotinylated PlcR or biotinylated ResD under anoxic conditions; streptavidin-HRP, chemiluminescence; both purified
[3] = biological target: ResD, recombinant purified (Bacillus cereus) (UniProt Q0GZR8); test: as above
[4] = biological target: T1, Bacillus cereus Fnr, recombinant tag-less apo-form (Bacillus cereus F4430/73); test: as above
[5] = biological target: T3, Fnr, endogenous in Bacillus cereus F4430/73 (Bacillus cereus (endogenous in B. cereus F4430/73)); test: co-IP; cleared lysate of anaerobically grown B. cereus F4430/73 incubated with polyclonal anti-Fnr on protein A Dynabeads; SDS-PAGE or non-denaturing PAGE, blots with anti-Fnr, anti-ResD, anti-PlcR

| Binder | binding [1] | binding [2] | binding [3] | binding [4] | binding [5] |
| --- | --- | --- | --- | --- | --- |
| B1 | binds | binds | binds | binds | – |
| B2 | – | – | – | – | binds |
